No constants are given. Whether binding was seen depends on the method and setting. In cells and extracts the contact can be indirect. A yes stands for co-enrichment or nearness to the bait. Other partners may have been found.
Experiments:
SREBP1_HUMAN (human) [1] = molecular target: T1, SREBP1_HUMAN (human) (UniProt P36956); test: mass spectrometry of Sptbn1 pull down in HEK293T cells
T1 sequence (looked up): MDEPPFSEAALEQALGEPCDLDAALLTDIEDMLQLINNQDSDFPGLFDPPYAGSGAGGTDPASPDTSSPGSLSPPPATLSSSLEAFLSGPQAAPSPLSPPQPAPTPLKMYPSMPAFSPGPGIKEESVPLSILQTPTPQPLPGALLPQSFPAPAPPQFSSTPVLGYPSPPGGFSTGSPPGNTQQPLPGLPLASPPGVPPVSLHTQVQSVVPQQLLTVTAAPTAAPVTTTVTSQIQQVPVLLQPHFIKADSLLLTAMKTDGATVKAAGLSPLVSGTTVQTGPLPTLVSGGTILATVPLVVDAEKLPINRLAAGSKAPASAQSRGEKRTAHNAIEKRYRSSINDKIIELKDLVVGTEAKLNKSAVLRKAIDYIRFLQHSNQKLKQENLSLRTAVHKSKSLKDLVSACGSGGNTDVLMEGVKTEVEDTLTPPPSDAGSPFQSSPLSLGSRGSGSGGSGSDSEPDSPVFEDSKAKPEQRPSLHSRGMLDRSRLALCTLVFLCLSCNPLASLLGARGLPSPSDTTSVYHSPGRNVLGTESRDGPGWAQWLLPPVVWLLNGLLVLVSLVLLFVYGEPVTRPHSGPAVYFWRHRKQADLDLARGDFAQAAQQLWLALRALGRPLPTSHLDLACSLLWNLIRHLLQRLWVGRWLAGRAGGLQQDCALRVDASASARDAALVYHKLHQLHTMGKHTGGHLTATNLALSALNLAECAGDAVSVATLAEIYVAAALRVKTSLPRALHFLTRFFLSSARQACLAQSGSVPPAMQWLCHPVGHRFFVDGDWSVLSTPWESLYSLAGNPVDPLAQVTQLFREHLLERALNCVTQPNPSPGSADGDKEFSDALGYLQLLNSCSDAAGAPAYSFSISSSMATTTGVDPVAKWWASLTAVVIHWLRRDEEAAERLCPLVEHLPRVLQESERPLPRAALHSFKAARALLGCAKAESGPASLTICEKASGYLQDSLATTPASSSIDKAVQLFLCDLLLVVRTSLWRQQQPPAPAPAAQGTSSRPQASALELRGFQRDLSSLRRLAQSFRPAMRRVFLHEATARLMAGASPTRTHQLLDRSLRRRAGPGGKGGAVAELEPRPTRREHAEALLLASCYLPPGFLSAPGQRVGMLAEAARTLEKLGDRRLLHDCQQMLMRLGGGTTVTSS

Sequences of proteins named here, by UniProt entry; tags and fusion partners are left off.
UniProt Q01082: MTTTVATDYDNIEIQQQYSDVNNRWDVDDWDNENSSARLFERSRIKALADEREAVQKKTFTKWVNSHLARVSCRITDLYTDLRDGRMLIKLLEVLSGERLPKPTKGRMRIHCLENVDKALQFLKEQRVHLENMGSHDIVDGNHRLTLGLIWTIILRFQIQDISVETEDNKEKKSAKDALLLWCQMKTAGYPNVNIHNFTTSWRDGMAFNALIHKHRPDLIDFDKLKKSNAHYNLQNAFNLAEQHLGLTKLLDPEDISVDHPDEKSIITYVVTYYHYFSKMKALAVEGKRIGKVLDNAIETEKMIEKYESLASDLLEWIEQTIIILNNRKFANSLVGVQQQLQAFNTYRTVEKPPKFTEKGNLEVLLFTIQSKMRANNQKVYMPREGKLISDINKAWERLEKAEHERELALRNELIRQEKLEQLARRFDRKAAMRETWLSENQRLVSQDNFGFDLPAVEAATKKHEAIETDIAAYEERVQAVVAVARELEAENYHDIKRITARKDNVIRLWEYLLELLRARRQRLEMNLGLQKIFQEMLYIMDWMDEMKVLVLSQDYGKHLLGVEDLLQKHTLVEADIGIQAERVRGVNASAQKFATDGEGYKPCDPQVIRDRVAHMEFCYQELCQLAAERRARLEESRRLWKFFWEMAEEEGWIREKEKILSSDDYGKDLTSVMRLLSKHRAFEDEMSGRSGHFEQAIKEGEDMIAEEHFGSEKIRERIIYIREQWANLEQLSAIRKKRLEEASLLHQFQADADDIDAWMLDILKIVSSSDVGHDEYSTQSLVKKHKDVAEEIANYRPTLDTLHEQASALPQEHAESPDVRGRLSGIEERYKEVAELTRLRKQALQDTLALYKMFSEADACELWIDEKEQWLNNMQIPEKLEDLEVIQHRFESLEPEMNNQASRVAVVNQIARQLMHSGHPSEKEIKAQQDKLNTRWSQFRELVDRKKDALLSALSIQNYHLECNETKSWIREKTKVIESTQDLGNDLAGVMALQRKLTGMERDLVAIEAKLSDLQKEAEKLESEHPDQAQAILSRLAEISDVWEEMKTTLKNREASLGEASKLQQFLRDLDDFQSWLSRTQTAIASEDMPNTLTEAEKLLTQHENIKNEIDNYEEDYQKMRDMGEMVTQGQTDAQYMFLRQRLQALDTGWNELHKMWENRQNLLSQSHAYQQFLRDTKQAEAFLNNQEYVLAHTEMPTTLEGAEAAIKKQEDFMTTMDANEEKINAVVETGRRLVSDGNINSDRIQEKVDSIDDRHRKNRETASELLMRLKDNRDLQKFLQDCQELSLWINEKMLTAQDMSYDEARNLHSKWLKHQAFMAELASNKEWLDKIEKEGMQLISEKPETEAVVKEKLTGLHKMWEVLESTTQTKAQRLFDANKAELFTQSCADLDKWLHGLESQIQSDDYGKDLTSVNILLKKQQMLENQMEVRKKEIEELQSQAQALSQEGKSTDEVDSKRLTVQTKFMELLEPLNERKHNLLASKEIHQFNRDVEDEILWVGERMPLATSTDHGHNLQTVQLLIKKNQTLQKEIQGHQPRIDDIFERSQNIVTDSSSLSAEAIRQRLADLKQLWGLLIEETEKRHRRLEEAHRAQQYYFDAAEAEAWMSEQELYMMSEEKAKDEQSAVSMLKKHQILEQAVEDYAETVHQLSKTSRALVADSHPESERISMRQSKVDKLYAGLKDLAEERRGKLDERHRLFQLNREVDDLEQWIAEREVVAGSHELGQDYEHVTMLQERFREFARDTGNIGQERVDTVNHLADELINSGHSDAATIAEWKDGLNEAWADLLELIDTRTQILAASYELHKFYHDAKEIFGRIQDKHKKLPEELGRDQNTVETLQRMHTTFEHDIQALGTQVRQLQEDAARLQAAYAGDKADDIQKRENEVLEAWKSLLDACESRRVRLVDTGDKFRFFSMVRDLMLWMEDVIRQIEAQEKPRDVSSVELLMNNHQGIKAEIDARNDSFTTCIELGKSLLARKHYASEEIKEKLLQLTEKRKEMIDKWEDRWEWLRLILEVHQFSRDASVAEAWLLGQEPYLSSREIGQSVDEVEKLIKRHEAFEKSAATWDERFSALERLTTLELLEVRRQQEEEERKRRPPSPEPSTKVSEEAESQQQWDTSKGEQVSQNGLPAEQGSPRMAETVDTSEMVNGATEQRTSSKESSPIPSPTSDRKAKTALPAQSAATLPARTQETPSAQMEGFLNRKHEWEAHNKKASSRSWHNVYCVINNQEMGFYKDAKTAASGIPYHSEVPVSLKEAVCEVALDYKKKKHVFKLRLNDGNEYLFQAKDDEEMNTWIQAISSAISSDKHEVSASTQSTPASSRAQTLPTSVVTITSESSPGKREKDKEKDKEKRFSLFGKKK

SREBP1_HUMAN (human) [2] = molecular target: T1, SREBP1_HUMAN (human); test: co-immunoprecipitation with V5-tagged SPTBN1 from stressed HEK293T cells, mass spectrometry

binding (SREBP1_HUMAN (human) [1]): binds
binding (SREBP1_HUMAN (human) [2]): binds
Substance: full-length V5-tagged SPTBN1 (from UniProt Q01082 1-2364)

From patent publication US20230416739A1
